Laboratory results from paper PMC5424160.

By UniProt entry, the sequences of proteins in these tests, tags left out.
UniProt O00255, whole entry: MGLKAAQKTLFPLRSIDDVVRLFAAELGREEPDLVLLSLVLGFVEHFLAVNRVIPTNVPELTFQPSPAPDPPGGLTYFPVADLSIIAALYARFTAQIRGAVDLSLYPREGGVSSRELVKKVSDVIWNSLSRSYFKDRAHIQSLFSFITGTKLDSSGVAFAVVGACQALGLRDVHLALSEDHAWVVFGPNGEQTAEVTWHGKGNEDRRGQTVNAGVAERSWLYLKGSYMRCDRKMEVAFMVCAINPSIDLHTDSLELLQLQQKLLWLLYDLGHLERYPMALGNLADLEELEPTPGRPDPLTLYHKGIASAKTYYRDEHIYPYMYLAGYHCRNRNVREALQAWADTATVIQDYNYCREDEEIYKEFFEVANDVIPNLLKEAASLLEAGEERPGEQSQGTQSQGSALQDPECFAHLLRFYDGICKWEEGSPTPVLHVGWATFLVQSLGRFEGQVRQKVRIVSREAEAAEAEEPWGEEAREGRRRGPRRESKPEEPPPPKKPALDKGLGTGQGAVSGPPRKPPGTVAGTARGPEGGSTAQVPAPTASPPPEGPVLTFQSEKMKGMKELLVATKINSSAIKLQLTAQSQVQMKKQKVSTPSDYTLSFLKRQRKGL

Columns and labels:
Menin = Menin (UniProt O00255); assay: EMSA; settings: Menin alone; EMSA: 50 mM HEPES (pH not stated), 150 mM NaCl, 0.2% BSA, 0.02% Tween 20, 0.5 mM MgCl2, 100 uM DTT; 60 min at room temperature; 5% gel; recombinant protein; protein details: His (pET-22b(+))
MYC (c-Myc) + MAX = assay: EMSA; settings: MYC/MAX heterodimer; EMSA: 50 mM HEPES (pH not stated), 150 mM NaCl, 0.2% BSA, 0.02% Tween 20, 0.5 mM MgCl2, 100 uM DTT; 60 min at room temperature; 5% gel; recombinant protein; protein details: His (pET-22b(+)),His (pET-22b(+))
[1] = system: MYC (c-Myc) + MAX + Menin; assay: EMSA supershift; settings: anti-Menin antibody, Menin bound only with both MYC and MAX present; EMSA: 50 mM HEPES (pH not stated), 150 mM NaCl, 0.2% BSA, 0.02% Tween 20, 0.5 mM MgCl2, 100 uM DTT; 60 min at room temperature; 5% gel; recombinant protein; protein details: His (pET-22b(+)),His (pET-22b(+)),His (pET-22b(+))

## GGAAGCAGACCACGTGGTCTGCTTCC (double strand) [canonical E-box probe]
Menin
  binding result: no binding
MYC (c-Myc) + MAX
  binding result: binds
[1]
  binding result: binds

The exact form of at least one protein or probe is not confirmed. For part of these data: A negative result means that nothing was seen under these conditions.
